Test results as given in the supplement of paper PMC10849652.
The list shows a part of the results.

By UniProt entry, the sequences of proteins in these tests, tags left out. Where a name states a change or a piece, a line headed by the entry shows the natural chain unless it says otherwise.
UniProt P56645: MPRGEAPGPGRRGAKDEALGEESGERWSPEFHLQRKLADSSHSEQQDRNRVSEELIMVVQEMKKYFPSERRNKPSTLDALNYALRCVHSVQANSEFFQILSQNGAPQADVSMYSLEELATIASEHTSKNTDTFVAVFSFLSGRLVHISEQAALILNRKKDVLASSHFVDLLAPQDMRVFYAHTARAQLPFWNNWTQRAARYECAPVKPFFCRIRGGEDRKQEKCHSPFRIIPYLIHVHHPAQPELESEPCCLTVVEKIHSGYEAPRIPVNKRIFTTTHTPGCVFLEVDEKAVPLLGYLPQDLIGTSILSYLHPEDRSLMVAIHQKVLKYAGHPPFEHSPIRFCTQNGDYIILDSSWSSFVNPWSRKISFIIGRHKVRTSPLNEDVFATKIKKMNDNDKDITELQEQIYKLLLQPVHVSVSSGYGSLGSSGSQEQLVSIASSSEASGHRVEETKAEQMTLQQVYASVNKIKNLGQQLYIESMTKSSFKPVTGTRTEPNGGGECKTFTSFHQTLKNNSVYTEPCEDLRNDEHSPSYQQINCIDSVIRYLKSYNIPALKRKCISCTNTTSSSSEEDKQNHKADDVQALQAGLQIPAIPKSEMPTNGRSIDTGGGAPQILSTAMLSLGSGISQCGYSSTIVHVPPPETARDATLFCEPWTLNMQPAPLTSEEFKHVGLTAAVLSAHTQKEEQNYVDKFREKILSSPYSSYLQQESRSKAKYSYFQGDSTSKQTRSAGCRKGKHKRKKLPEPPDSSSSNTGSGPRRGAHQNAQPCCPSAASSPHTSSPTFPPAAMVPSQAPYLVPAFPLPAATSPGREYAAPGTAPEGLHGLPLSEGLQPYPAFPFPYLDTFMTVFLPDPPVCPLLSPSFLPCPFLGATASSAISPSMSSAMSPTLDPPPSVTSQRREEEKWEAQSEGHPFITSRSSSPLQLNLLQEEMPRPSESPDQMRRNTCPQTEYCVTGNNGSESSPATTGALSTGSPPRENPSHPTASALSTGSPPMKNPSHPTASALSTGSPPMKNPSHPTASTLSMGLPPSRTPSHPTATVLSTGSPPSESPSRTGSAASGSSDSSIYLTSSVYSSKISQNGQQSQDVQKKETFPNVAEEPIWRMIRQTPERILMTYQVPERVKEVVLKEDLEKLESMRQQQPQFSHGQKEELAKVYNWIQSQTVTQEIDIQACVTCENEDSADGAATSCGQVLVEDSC
UniProt Q8NCN5: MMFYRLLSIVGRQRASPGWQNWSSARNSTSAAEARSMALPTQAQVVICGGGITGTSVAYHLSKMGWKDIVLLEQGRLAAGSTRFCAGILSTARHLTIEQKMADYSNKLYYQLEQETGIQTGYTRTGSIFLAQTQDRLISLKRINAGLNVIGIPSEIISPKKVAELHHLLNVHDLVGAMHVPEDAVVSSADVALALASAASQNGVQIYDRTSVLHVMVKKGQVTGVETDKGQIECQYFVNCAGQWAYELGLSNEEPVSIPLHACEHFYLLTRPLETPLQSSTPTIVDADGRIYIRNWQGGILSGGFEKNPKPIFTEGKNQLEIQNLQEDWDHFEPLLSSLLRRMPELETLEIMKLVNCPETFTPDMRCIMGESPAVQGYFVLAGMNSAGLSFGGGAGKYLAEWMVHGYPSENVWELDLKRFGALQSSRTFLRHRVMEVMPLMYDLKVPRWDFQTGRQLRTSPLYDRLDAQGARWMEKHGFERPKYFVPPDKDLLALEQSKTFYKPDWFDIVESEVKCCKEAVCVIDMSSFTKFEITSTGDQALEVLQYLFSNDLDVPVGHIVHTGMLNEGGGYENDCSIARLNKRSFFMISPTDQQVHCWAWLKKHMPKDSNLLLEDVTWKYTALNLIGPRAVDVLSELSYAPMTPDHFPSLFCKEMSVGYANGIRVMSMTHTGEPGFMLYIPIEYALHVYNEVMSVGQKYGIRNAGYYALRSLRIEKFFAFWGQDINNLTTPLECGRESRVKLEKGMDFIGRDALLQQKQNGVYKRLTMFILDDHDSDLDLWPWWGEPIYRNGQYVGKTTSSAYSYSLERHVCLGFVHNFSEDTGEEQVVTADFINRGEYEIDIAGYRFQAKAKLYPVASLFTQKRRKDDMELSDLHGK
UniProt Q96AQ6: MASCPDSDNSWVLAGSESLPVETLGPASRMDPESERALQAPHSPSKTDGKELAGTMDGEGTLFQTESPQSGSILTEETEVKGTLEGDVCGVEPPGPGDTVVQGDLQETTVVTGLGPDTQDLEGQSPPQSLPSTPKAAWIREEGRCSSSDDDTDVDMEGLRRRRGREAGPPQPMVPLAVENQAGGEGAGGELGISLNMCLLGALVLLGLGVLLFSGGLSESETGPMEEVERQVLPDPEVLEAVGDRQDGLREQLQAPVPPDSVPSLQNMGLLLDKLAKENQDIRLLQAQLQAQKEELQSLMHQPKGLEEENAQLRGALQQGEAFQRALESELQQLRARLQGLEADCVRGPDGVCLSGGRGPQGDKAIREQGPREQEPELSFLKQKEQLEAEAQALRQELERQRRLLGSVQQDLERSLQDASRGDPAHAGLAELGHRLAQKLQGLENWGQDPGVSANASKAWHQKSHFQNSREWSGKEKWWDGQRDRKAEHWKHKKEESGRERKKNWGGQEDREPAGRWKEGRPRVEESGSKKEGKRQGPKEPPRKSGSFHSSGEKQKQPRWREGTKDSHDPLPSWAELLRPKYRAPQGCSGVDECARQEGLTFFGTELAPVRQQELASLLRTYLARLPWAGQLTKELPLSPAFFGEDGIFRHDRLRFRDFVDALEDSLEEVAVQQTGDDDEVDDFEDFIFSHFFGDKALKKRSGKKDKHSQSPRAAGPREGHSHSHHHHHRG
UniProt Q15154: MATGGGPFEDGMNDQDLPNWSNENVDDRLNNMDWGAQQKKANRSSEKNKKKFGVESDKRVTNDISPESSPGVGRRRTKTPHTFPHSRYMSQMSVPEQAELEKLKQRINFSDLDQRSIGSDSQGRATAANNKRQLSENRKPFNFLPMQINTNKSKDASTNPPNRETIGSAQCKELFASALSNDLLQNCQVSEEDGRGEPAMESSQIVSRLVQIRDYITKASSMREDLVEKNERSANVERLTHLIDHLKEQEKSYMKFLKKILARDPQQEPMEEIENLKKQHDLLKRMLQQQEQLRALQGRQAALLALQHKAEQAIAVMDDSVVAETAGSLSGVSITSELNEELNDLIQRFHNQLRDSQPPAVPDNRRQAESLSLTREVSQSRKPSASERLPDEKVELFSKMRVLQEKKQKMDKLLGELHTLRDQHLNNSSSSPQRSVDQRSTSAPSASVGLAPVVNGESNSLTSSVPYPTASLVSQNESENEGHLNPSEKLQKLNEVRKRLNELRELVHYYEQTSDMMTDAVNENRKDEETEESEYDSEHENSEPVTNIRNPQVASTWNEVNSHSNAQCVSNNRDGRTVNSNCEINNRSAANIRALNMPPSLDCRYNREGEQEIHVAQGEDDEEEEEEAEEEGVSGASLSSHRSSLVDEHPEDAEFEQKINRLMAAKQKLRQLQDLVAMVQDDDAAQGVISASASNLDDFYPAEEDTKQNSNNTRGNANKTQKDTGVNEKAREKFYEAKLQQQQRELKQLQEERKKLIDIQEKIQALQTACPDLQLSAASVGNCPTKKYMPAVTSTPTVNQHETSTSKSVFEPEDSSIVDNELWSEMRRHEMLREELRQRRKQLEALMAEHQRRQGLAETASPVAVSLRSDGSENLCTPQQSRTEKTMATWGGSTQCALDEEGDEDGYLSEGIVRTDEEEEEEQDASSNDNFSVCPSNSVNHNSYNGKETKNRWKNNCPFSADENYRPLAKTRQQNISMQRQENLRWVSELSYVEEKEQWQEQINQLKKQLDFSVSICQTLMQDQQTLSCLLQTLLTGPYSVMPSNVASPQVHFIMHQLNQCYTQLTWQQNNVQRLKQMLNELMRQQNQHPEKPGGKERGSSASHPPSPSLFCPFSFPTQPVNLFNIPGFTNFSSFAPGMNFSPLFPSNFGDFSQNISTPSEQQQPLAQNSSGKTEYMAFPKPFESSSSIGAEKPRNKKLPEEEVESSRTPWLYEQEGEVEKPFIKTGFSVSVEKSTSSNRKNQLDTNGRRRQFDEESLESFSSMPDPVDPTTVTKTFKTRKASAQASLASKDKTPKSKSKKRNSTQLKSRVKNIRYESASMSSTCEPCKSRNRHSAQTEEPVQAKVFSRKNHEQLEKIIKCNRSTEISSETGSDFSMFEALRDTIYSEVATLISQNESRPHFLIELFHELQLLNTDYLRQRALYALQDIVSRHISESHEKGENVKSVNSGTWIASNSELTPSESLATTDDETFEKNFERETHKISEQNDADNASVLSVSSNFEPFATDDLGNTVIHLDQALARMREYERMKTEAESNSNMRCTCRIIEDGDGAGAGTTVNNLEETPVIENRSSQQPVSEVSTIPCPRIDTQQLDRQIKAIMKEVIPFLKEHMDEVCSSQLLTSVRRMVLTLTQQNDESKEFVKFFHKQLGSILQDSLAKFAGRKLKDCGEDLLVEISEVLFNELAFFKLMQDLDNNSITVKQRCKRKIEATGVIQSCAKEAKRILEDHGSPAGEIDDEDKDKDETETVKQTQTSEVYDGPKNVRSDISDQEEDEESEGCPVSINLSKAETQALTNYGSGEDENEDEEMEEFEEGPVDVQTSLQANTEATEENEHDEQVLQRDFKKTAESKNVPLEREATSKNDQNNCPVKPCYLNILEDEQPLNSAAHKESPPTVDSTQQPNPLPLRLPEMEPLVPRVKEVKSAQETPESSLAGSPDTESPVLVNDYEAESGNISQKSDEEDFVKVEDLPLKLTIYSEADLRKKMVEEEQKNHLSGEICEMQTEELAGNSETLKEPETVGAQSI
UniProt O96011: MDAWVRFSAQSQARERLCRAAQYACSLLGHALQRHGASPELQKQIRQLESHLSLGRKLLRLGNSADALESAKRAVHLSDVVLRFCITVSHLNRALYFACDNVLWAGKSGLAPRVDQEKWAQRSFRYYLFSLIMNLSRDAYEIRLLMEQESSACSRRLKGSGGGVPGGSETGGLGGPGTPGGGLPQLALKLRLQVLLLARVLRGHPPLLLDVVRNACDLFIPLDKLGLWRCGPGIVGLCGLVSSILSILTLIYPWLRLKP
UniProt P05166: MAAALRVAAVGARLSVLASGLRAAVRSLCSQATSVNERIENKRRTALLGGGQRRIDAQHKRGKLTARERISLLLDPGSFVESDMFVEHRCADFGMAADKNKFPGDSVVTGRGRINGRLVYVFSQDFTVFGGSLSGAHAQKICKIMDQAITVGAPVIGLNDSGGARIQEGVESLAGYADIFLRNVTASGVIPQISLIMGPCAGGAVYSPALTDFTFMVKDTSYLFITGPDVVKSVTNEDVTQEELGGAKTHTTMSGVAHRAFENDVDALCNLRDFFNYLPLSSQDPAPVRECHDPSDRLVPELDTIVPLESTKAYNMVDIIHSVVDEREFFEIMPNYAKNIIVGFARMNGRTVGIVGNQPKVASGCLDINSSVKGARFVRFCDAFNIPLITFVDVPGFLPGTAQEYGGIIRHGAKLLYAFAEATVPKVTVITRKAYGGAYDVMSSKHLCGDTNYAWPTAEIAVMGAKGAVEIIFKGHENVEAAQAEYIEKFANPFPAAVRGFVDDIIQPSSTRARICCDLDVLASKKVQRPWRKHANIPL
UniProt Q8WW12: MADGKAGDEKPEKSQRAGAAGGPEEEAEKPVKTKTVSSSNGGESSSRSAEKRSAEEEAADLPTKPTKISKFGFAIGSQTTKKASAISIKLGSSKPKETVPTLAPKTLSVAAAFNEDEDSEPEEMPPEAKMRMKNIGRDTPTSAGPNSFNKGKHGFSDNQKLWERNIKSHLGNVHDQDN
UniProt O60925, whole entry, looked up: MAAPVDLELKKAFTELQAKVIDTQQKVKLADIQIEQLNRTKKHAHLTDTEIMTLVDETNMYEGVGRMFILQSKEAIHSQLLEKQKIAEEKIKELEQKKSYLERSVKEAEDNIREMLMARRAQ
UniProt O00541, whole entry, looked up: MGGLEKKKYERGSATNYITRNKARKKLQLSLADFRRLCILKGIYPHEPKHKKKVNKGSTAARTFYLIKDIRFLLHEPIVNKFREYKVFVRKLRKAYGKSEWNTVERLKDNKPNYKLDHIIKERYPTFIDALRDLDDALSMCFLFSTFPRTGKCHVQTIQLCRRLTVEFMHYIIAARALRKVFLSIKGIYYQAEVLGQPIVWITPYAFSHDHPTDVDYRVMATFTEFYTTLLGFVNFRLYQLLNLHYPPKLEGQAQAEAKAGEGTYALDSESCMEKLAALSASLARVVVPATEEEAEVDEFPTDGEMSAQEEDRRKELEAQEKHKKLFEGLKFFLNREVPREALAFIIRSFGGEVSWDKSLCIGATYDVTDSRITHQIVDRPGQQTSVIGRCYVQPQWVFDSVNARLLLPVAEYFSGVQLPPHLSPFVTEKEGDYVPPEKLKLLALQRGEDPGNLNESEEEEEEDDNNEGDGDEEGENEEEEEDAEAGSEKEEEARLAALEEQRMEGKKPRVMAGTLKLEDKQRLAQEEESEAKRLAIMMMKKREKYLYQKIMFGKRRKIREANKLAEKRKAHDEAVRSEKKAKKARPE

Columns and labels:
Experiment in all cases: log2 fold change, soluble protein after heating vs DMSO (PISA); higher = thermal stabilisation; K562 lysate, 10 uM; active = over 0.2 and 3.5 SD of the protein, either way, in both replicates (recomputed)
erlotinib = compound: C#Cc1cccc(Nc2ncnc3cc(OCCOC)c(OCCOC)cc23)c1 [erlotinib]
Summary of the method: (§1)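 K562 pellets were dounce-homogenised in PBS pH 7.4 with 1 mM MgCl2, and the crude extract at 1 mg/mL protein was treated with 10 μM compound for 30 min. Aliquots were heated for 3 min across 48°C-58°C, pooled, and brought to 0.5% NP-40 at 4°C; soluble protein was the supernatant after 21,000xg for 90 min. Soluble protein was quantified by TMTpro 16plex LC-MS/MS with channel sums equalised, and reported as log2 fold change in thermal stability against DMSO controls, with values from duplicates.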

[1] = compound: C/C(=N\NC(=O)C1=CC(=CC=C1)S(=O)(=O)N2CCOCC2)/C3=C(C=CC(=C3)Cl)O
Summary of the method: as §1

[2] = compound: C1=CC(=CC=C1C2=NC3=C(N2)C=C(C=C3)C(=O)N)OC4=CC=C(C=C4)Cl
Summary of the method: as §1

[3] = compound: C1=CC2=C(C=CC(=C2)/C=C\3/C(=O)NC(=NCC4=CC=CS4)S3)N=C1
Summary of the method: as §1

[4] = compound: C1=CC2=NC=CN=C2C=C1/C=C/3\C(=O)NC(=O)S3
Summary of the method: as §1

[5] = compound: C1=CC=C(C=C1)C2=NC(=C(N2)C3=CC=NC=C3)C4=CC(=C(C=C4)Cl)O
Summary of the method: as §1

[6] = compound: C1=CC=C2C(=C1)C3=NNC4=CC=CC(=C43)C2=O
Summary of the method: as §1

[7] = compound: C1CCN(C1)C(=O)NC2=CC=CC(=C2)NC3=NC=C(C(=N3)NCCC4=CN=CN4)Br
Summary of the method: as §1

[8] = compound: C1CN(CCC1(CC2=CC=C(C=C2)Cl)N)C3=NC=NC4=C3C=CN4
Summary of the method: as §1

IRAK-1-4 Inhibitor I = compound: C1COCCN1CCN2C3=CC=CC=C3N=C2NC(=O)C4=CC(=CC=C4)[N+](=O)[O-] [IRAK-1-4 Inhibitor I]
Summary of the method: as §1

Measured: log2 fold change

PDS5B (UniProt Q9NTI5)
inactive: erlotinib 0.031 | [1] 0.014 | [2] -0.019 | [3] 0.049 | [4] 0.001 | [5] 0.016 | [6] -0.005 | [7] 0.011 | [8] -0.018 | IRAK-1-4 Inhibitor I -0.034

PER3 isoform 2 (UniProt P56645)
inactive: erlotinib 0.014 | [1] 0.056 | [2] 0.001 | [3] 0.055 | [4] -0.043 | [5] 0.009 | [6] 0.038 | [7] 0.066 | [8] 0 | IRAK-1-4 Inhibitor I -0.01

PFAS (UniProt O15067)
inactive: erlotinib 0.014 | [1] 0.03 | [2] 0.006 | [3] 0.015 | [4] 0.011 | [5] -0.017 | [6] -0.018 | [7] -0.026 | [8] 0.001 | IRAK-1-4 Inhibitor I -0.006

PCLAF (UniProt Q15004)
inactive: erlotinib 0 | [1] -0.026 | [2] 0.057 | [3] -0.006 | [4] -0.059 | [5] -0.015 | [6] 0.012 | [7] 0.037 | [8] -0.052 | IRAK-1-4 Inhibitor I 0.016

PDLIM1 (UniProt O00151)
inactive: erlotinib -0.012 | [1] -0.02 | [2] 0.026 | [3] -0.014 | [4] 0.001 | [5] 0.008 | [6] 0.02 | [7] -0.001 | [8] 0.014 | IRAK-1-4 Inhibitor I 0.01

PCBP3 (UniProt P57721)
inactive: erlotinib 0.005 | [1] 0.028 | [2] 0.021 | [3] -0.031 | [4] 0.02 | [5] 0.02 | [6] 0.029 | [7] -0.003 | [8] 0.021 | IRAK-1-4 Inhibitor I -0.005

PDPR (UniProt Q8NCN5)
inactive: erlotinib -0.013 | [1] 0.025 | [2] 0.006 | [3] -0.01 | [4] 0.007 | [5] -0.013 | [6] -0.066 | [7] -0.003 | [8] 0.034 | IRAK-1-4 Inhibitor I -0.022

PBXIP1 (UniProt Q96AQ6)
inactive: erlotinib -0.025 | [1] 0.087 | [2] 0.028 | [3] 0.092 | [4] 0.021 | [5] -0.007 | [6] -0.069 | [7] -0.026 | [8] -0.011 | IRAK-1-4 Inhibitor I -0.014

PDCD6IP isoform 2 (UniProt Q8WUM4)
inactive: erlotinib 0.027 | [1] 0.046 | [2] 0.009 | [3] 0.01 | [4] -0.02 | [5] 0.007 | [6] -0.007 | [7] 0.002 | [8] 0.007 | IRAK-1-4 Inhibitor I -0.002

PCIF1 (UniProt Q9H4Z3)
inactive: erlotinib -0.011 | [1] 0.067 | [2] -0.008 | [3] 0.042 | [4] 0.102 | [5] -0.015 | [6] 0.014 | [7] -0.011 | [8] -0.033 | IRAK-1-4 Inhibitor I -0.041

PCM1 (UniProt Q15154)
inactive: erlotinib -0.021 | [1] -0.045 | [2] 0.024 | [3] 0.022 | [4] 0.004 | [5] 0.003 | [6] 0.005 | [7] 0.029 | [8] -0.015 | IRAK-1-4 Inhibitor I 0.031

PCBP2 isoform 8 (UniProt Q15366)
inactive: erlotinib 0.118 | [1] -0.287 | [2] 0.024 | [3] 0.001 | [4] -0.039 | [5] 0.087 | [6] -0.041 | [7] -0.088 | [8] 0.01 | IRAK-1-4 Inhibitor I 0.018

PDE4A (UniProt P27815)
inactive: erlotinib -0.055 | [1] -0.093 | [2] -0.011 | [3] 0.363 | [4] -0.013 | [5] 0.025 | [6] -0.077 | [7] -0.125 | [8] -0.025 | IRAK-1-4 Inhibitor I -0.002

PCNT (UniProt O95613)
inactive: erlotinib 0.004 | [1] 0.019 | [2] 0.002 | [3] 0.001 | [4] -0.002 | [5] -0.033 | [6] -0.025 | [7] 0.017 | [8] -0.011 | IRAK-1-4 Inhibitor I 0.034

PEX11B (UniProt O96011)
inactive: erlotinib -0.022 | [1] 0.06 | [2] 0.015 | [3] 0.011 | [4] -0.039 | [5] -0.017 | [6] -0.02 | [7] 0.002 | [8] 0.026 | IRAK-1-4 Inhibitor I 0.038

PCLO (UniProt Q9Y6V0)
inactive: erlotinib 0.103 | [1] -0.014 | [2] 0.128 | [3] -0.038 | [4] -0.026 | [5] 0.035 | [6] -0.125 | [7] -0.063 | [8] 0.107 | IRAK-1-4 Inhibitor I 0.083

PCCB (UniProt P05166)
inactive: erlotinib 0.014 | [1] 0.053 | [2] -0.006 | [3] -0.018 | [4] 0.005 | [5] -0.007 | [6] -0.004 | [7] -0.015 | [8] 0.001 | IRAK-1-4 Inhibitor I 0.038

PDHA1 isoform 4 (UniProt P08559)
inactive: erlotinib 0.027 | [1] 0.021 | [2] 0.003 | [3] 0.016 | [4] 0.001 | [5] 0.015 | [6] -0.027 | [7] -0.01 | [8] -0.002 | IRAK-1-4 Inhibitor I -0.009

6 consecutive entries out of the list so far, for reference:
PCIF1 (UniProt Q9H4Z3)
inactive: erlotinib -0.011 | [1] 0.067 | [2] -0.008 | [3] 0.042 | [4] 0.102 | [5] -0.015 | [6] 0.014 | [7] -0.011 | [8] -0.033 | IRAK-1-4 Inhibitor I -0.041

PCM1 (UniProt Q15154)
inactive: erlotinib -0.021 | [1] -0.045 | [2] 0.024 | [3] 0.022 | [4] 0.004 | [5] 0.003 | [6] 0.005 | [7] 0.029 | [8] -0.015 | IRAK-1-4 Inhibitor I 0.031

PCBP2 isoform 8 (UniProt Q15366)
inactive: erlotinib 0.118 | [1] -0.287 | [2] 0.024 | [3] 0.001 | [4] -0.039 | [5] 0.087 | [6] -0.041 | [7] -0.088 | [8] 0.01 | IRAK-1-4 Inhibitor I 0.018

PDE4A (UniProt P27815)
inactive: erlotinib -0.055 | [1] -0.093 | [2] -0.011 | [3] 0.363 | [4] -0.013 | [5] 0.025 | [6] -0.077 | [7] -0.125 | [8] -0.025 | IRAK-1-4 Inhibitor I -0.002

PCNT (UniProt O95613)
inactive: erlotinib 0.004 | [1] 0.019 | [2] 0.002 | [3] 0.001 | [4] -0.002 | [5] -0.033 | [6] -0.025 | [7] 0.017 | [8] -0.011 | IRAK-1-4 Inhibitor I 0.034

PEX11B (UniProt O96011)
inactive: erlotinib -0.022 | [1] 0.06 | [2] 0.015 | [3] 0.011 | [4] -0.039 | [5] -0.017 | [6] -0.02 | [7] 0.002 | [8] 0.026 | IRAK-1-4 Inhibitor I 0.038

The list continues.

PGGHG (UniProt Q32M88)
inactive: erlotinib -0.006 | [1] 0.054 | [2] 0.044 | [3] 0.011 | [4] -0.018 | [5] -0.063 | [6] -0.015 | [7] 0.013 | [8] 0.032 | IRAK-1-4 Inhibitor I 0.032

PAXX (UniProt Q9BUH6)
inactive: erlotinib -0.01 | [1] 0.05 | [2] 0.029 | [3] -0.001 | [4] 0.026 | [5] 0.034 | [6] 0.061 | [7] 0.004 | [8] -0.029 | IRAK-1-4 Inhibitor I 0.007

PCNP (UniProt Q8WW12)
inactive: erlotinib 0.005 | [1] 0.053 | [2] 0.035 | [3] 0.003 | [4] -0.011 | [5] -0.001 | [6] 0.041 | [7] -0.006 | [8] 0.004 | IRAK-1-4 Inhibitor I 0.002

PFDN1 (UniProt O60925)
inactive: erlotinib 0.041 | [1] 0.069 | [2] -0.078 | [3] 0.017 | [4] -0.033 | [5] 0.017 | [6] -0.021 | [7] 0.018 | [8] 0.066 | IRAK-1-4 Inhibitor I -0.042

PFDN5 (UniProt Q99471)
inactive: erlotinib 0.039 | [1] 0.054 | [2] -0.035 | [3] 0.022 | [4] -0.033 | [5] 0.036 | [6] -0.024 | [7] 0.091 | [8] 0.173 | IRAK-1-4 Inhibitor I 0.007

PCID2 (UniProt Q5JVF3)
inactive: erlotinib -0.014 | [1] -0.026 | [2] 0.007 | [3] -0.033 | [4] -0.003 | [5] -0.039 | [6] -0.044 | [7] -0.05 | [8] 0.065 | IRAK-1-4 Inhibitor I 0.005

PES1 (UniProt O00541)
inactive: erlotinib 0 | [1] -0.071 | [2] -0.014 | [3] -0.044 | [4] -0.001 | [5] 0.001 | [6] -0.012 | [7] 0.025 | [8] -0.056 | IRAK-1-4 Inhibitor I 0.037

PDCD10 (UniProt Q9BUL8)
inactive: erlotinib -0.029 | [1] -0.001 | [2] -0.009 | [3] -0.049 | [4] -0.028 | [5] -0.007 | [6] 0.087 | [7] 0.035 | [8] -0.025 | IRAK-1-4 Inhibitor I -0.012

PDCD6 (UniProt O75340)
inactive: erlotinib -0.043 | [1] -0.036 | [2] -0.017 | [3] 0.023 | [4] 0.01 | [5] 0.007 | [6] 0.016 | [7] -0.022 | [8] 0.003 | IRAK-1-4 Inhibitor I 0.006

PCBP2 (UniProt F8W0G4)
inactive: erlotinib -0.117 | [1] -0.36 | [2] -0.007 | [3] -0.102 | [4] 0.022 | [5] 0.005 | [6] -0.236 | [7] -0.241 | [8] 0.079 | IRAK-1-4 Inhibitor I 0.093

PCYT2 isoform 3 (UniProt Q99447)
inactive: erlotinib -0.035 | [1] 0.031 | [2] 0.03 | [3] 0.008 | [4] 0.051 | [5] -0.161 | [6] -0.024 | [7] -0.021 | [8] 0.013 | IRAK-1-4 Inhibitor I -0.007

PDLIM5 (UniProt Q96HC4)
inactive: erlotinib -0.011 | [1] -0.11 | [2] 0.038 | [3] 0.006 | [4] -0.016 | [5] 0.001 | [6] 0.008 | [7] 0.008 | [8] -0.009 | IRAK-1-4 Inhibitor I -0.017
